{"source": "the supplement of paper PMC8728848", "binders": {"B1": {"name": "Drgal1 (Danio rerio) (protein)", "chain": "MAGVLIQNMSFKVGQTLTITGVPKPDSTNFAINIGHSPEDIALHMNPRFDAHGDQCTIVCNSFQSGSWCEEHRDDNFPFIQDKEFQIKITFTNEEFLVTLPDGSEIHFPNRQGSEKYKYMYFEGEVRIQGVEIK"}}, "assay_in_all_cases": "glycan array binding signal (z-score within array); higher = stronger binding", "conditions_in_all_cases": "glycan notation: IUPAC condensed, linker removed", "key": {"[1]": {"target": "Gal(b1-4)GlcNAc(b1-3)Gal(b1-4)GlcNAc(b1-3)Gal(b1-4)GlcNAc(b1-3)Gal(b1-4)GlcNAc(b1-2)Man(a1-3)[Gal(b1-4)GlcNAc(b1-3)Gal(b1-4)GlcNAc(b1-3)Gal(b1-4)GlcNAc(b1-3)Gal(b1-4)GlcNAc(b1-2)Man(a1-6)]Man(b1-4)GlcNAc(b1-4)GlcNAc", "outline": "(§1)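 The Consortium for Functional Glycomics database supplied 3228 glycan arrays, of which those lacking an available protein sequence were dropped. The binding signal, a within-array Z-score, was averaged across arrays of the same protein sequence and across linkers. Negative scores can be read as non-binding.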"}, "[2]": {"target": "Gal(b1-4)GlcNAc(b1-3)Gal(b1-4)GlcNAc(b1-3)Gal(b1-4)GlcNAc(b1-3)Gal(b1-4)GlcNAc(b1-2)Man(a1-3)[Gal(b1-4)GlcNAc(b1-3)Gal(b1-4)GlcNAc(b1-3)Gal(b1-4)GlcNAc(b1-3)Gal(b1-4)GlcNAc(b1-2)Man(a1-6)]Man(b1-4)GlcNAc(b1-4)[Fuc(a1-6)]GlcNAc", "outline": "as §1"}, "[3]": {"target": "Gal(b1-4)GlcNAc(b1-3)Gal(b1-4)GlcNAc(b1-3)Gal(b1-4)GlcNAc(b1-3)Gal(b1-4)GlcNAc(b1-2)[Gal(b1-4)GlcNAc(b1-3)Gal(b1-4)GlcNAc(b1-3)Gal(b1-4)GlcNAc(b1-3)Gal(b1-4)GlcNAc(b1-6)]Man(a1-6)[Gal(b1-4)GlcNAc(b1-3)Gal(b1-4)GlcNAc(b1-3)Gal(b1-4)GlcNAc(b1-3)Gal(b1-4)GlcNAc(b1-2)Man(a1-3)]Man(b1-4)GlcNAc(b1-4)[Fuc(a1-6)]GlcNAc", "outline": "as §1"}, "[4]": {"target": "Gal(b1-4)GlcNAc(b1-3)Gal(b1-4)GlcNAc(b1-3)Gal(b1-4)GlcNAc(b1-3)Gal(b1-4)GlcNAc(b1-3)Gal(b1-4)GlcNAc(b1-2)Man(a1-3)[Gal(b1-4)GlcNAc(b1-3)Gal(b1-4)GlcNAc(b1-3)Gal(b1-4)GlcNAc(b1-3)Gal(b1-4)GlcNAc(b1-3)Gal(b1-4)GlcNAc(b1-2)Man(a1-6)]Man(b1-4)GlcNAc(b1-4)GlcNAc", "outline": "as §1"}, "[5]": {"target": "Gal(b1-4)GlcNAc(b1-3)Gal(b1-4)GlcNAc(b1-3)Gal(b1-4)GlcNAc(b1-3)Gal(b1-4)GlcNAc(b1-3)Gal(b1-4)GlcNAc(b1-2)Man(a1-3)[Gal(b1-4)GlcNAc(b1-3)Gal(b1-4)GlcNAc(b1-3)Gal(b1-4)GlcNAc(b1-3)Gal(b1-4)GlcNAc(b1-3)Gal(b1-4)GlcNAc(b1-2)Man(a1-6)]Man(b1-4)GlcNAc(b1-4)[Fuc(a1-6)]GlcNAc", "outline": "as §1"}, "[6]": {"target": "Gal(b1-4)GlcNAc(b1-3)Gal(b1-4)GlcNAc(b1-3)Gal(b1-4)GlcNAc(b1-3)Gal(b1-4)GlcNAc(b1-3)Gal(b1-4)GlcNAc(b1-2)[Gal(b1-4)GlcNAc(b1-3)Gal(b1-4)GlcNAc(b1-3)Gal(b1-4)GlcNAc(b1-3)Gal(b1-4)GlcNAc(b1-3)Gal(b1-4)GlcNAc(b1-6)]Man(a1-6)[Gal(b1-4)GlcNAc(b1-3)Gal(b1-4)GlcNAc(b1-3)Gal(b1-4)GlcNAc(b1-3)Gal(b1-4)GlcNAc(b1-3)Gal(b1-4)GlcNAc(b1-2)Man(a1-3)]Man(b1-4)GlcNAc(b1-4)[Fuc(a1-6)]GlcNAc", "outline": "as §1"}, "[7]": {"target": "Gal(b1-4)GlcNAc(b1-3)Gal(b1-4)GlcNAc(b1-3)Gal(b1-4)GlcNAc(b1-3)Gal(b1-4)GlcNAc(b1-3)Gal(b1-4)GlcNAc(b1-3)Gal(b1-4)GlcNAc(b1-2)Man(a1-3)[Gal(b1-4)GlcNAc(b1-3)Gal(b1-4)GlcNAc(b1-3)Gal(b1-4)GlcNAc(b1-3)Gal(b1-4)GlcNAc(b1-3)Gal(b1-4)GlcNAc(b1-3)Gal(b1-4)GlcNAc(b1-2)Man(a1-6)]Man(b1-4)GlcNAc(b1-4)GlcNAc", "outline": "as §1"}, "[8]": {"target": "Gal(b1-4)GlcNAc(b1-3)Gal(b1-4)GlcNAc(b1-3)GalNAc", "outline": "as §1"}, "[9]": {"target": "Gal(b1-4)GlcNAc(b1-3)Gal(b1-4)GlcNAc(b1-3)[Gal(b1-4)GlcNAc(b1-3)Gal(b1-4)GlcNAc(b1-6)]GalNAc", "outline": "as §1"}, "[10]": {"target": "Gal(b1-4)GlcNAc(b1-3)Gal(b1-4)GlcNAc(b1-6)[Gal(b1-3)]GalNAc", "outline": "as §1"}, "[11]": {"target": "Gal(b1-4)GlcNAc(b1-3)Gal(b1-4)[Fuc(a1-3)]GlcNAc(b1-3)Gal(b1-4)[Fuc(a1-3)]GlcNAc", "outline": "as §1"}, "[12]": {"target": "Gal(b1-4)GlcNAc(b1-3)GalNAc", "outline": "as §1"}, "[13]": {"target": "Gal(b1-4)GlcNAc(b1-3)[Fuc(a1-3)GlcNAc(b1-6)]Gal(b1-4)Glc", "outline": "as §1"}, "[14]": {"target": "Gal(b1-4)GlcNAc(b1-3)[Gal(b1-4)GlcNAc(b1-6)]Gal(b1-4)GlcNAc", "outline": "as §1"}, "[15]": {"target": "Gal(b1-4)GlcNAc(b1-3)[GlcNAc(b1-6)]Gal(b1-4)GlcNAc", "outline": "as §1"}, "[16]": {"target": "Gal(b1-4)GlcNAc(b1-6)Gal(b1-4)GlcNAc", "outline": "as §1"}, "[17]": {"target": "Gal(b1-4)GlcNAc(b1-6)GalNAc", "outline": "as §1"}, "[18]": {"target": "Gal(b1-4)GlcNAc(b1-6)[Gal(b1-3)]GalNAc", "outline": "as §1"}, "[19]": {"target": "Gal(b1-4)GlcNAc(b1-6)[Gal(b1-4)GlcNAc(b1-3)]GalNAc", "outline": "as §1"}, "Gal(b1-4)GlcNAc6P": {"target": "Gal(b1-4)GlcNAc6P", "outline": "as §1"}, "Gal(b1-6)Gal": {"target": "Gal(b1-6)Gal", "outline": "as §1"}, "Gal3S(b1-3)GalNAc": {"target": "Gal3S(b1-3)GalNAc", "outline": "as §1"}, "Gal3S(b1-3)GlcNAc": {"target": "Gal3S(b1-3)GlcNAc", "outline": "as §1"}}, "note": "The other results are listed elsewhere or left out."}
{"binder": "B1", "values": [{"measurement": "glycan array binding signal (z-score)", "setting": "[1]", "result": 1.46}, {"measurement": "glycan array binding signal (z-score)", "setting": "[2]", "result": 1.5}, {"measurement": "glycan array binding signal (z-score)", "setting": "[3]", "result": 2.07}, {"measurement": "glycan array binding signal (z-score)", "setting": "[4]", "result": 7.35}, {"measurement": "glycan array binding signal (z-score)", "setting": "[5]", "result": 1.72}, {"measurement": "glycan array binding signal (z-score)", "setting": "[6]", "result": 2.15}, {"measurement": "glycan array binding signal (z-score)", "setting": "[7]", "result": 1.42}, {"measurement": "glycan array binding signal (z-score)", "setting": "[8]", "result": 0.766}, {"measurement": "glycan array binding signal (z-score)", "setting": "[9]", "result": 0.887}, {"measurement": "glycan array binding signal (z-score)", "setting": "[10]", "result": 0.322}, {"measurement": "glycan array binding signal (z-score)", "setting": "[11]", "result": 1.1}, {"measurement": "glycan array binding signal (z-score)", "setting": "[12]", "result": -0.56}, {"measurement": "glycan array binding signal (z-score)", "setting": "[13]", "result": 0.64}, {"measurement": "glycan array binding signal (z-score)", "setting": "[14]", "result": 0.112}, {"measurement": "glycan array binding signal (z-score)", "setting": "[15]", "result": 0.038}, {"measurement": "glycan array binding signal (z-score)", "setting": "[16]", "result": 0.065}, {"measurement": "glycan array binding signal (z-score)", "setting": "[17]", "result": -0.125}, {"measurement": "glycan array binding signal (z-score)", "setting": "[18]", "result": 0.099}, {"measurement": "glycan array binding signal (z-score)", "setting": "[19]", "result": 0.497}, {"measurement": "glycan array binding signal (z-score)", "setting": "Gal(b1-4)GlcNAc6P", "result": -0.128}, {"measurement": "glycan array binding signal (z-score)", "setting": "Gal(b1-6)Gal", "result": -1.04}, {"measurement": "glycan array binding signal (z-score)", "setting": "Gal3S(b1-3)GalNAc", "result": -0.521}, {"measurement": "glycan array binding signal (z-score)", "setting": "Gal3S(b1-3)GlcNAc", "result": 0.034}]}
